64 compounds from PubChem BioAssay AID445 (National Center for Advancing Translational Sciences (NCATS), 2006) can be followed below.

The term AC50 denotes the concentration giving half of the maximal activity seen.

Some of the results follow. These are further read-outs of the screen, such as a control signal, another cell line or another target. No call is given for them. Most of these compounds were active or inconclusive in the main read-out, so they are no random draw. Words in brackets tell the shape of the fitted curve; partial curves, single points and poor fits give uncertain potencies.

This assay can be described thus: IkB Signaling. The conditions noted are these: ABC-DLBCL IkBa-CBG/CBR dual luciferase ratio (green luciferase fused to IkBa over red control in OCI-Ly3 lymphoma cells), 4 h; measured here: control luc red channel unless noted. The method in brief:
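In this assay, an IκBα–CBG68 fusion accumulates when IKK-driven degradation is blocked; native CBR normalizes for cell number. OCI-Ly3 cells were treated 4 h with compound and doxycycline, then green and red light read after Chroma-Glo addition.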
With `CCN(c1ccc(OC)cc1)S(=O)(=O)c1ccc2[nH]c(=O)ccc2c1`, the AC50 is 10 µM [falling, partial curve].

Turning to `O=C(NCc1ccc(Cl)cc1)C1CCCN(c2nc3ccccc3n3cccc23)C1` (centres undefined), the AC50 is 12.6 µM [falling, partial curve].

For `O=C(Cn1c2ncccc2c(=O)n1-c1ccccc1)Nc1ccc(F)c(F)c1`, the half-maximal activity concentration (AC50) was 39.8 µM [falling, single point].

As to `Cc1cc(N2CCCCC2)nc2ccc(NC(=O)/C=C/c3ccccc3Cl)cc12`, the AC50 is 3.98 µM [falling, partial curve].

As to `Cc1ccccc1Cn1c(=O)n(CCc2ccccc2)c(=O)c2ccccc21`, the concentration at half-maximal activity (AC50) is 10 µM [falling, partial curve].

Consider `COc1ccccc1-c1cc(C(=O)N2CCCCC2C)no1` (centres undefined), for which the concentration at half-maximal activity (AC50) is 0.1 µM [rising, full curve].

On to `CCCCC(=O)Nc1ccc2nc(SCC(=O)N3CCCC3)sc2c1`, for which the AC50 was 25.1 µM [falling, single point].

With `COc1ccc(CNC(=O)c2nn(-c3ccccc3C)nc2CO)cc1`, the AC50 was 25.1 µM [falling, partial curve].

Turning to `CCOc1ccccc1CC1C(=O)Nc2ccc(Br)cc21` (centres undefined), the concentration at half-maximal activity (AC50) was 31.6 µM [falling, single point].

Consider `CCC(C)NC(=O)CCc1c(C)nc2cc(-c3ccc(OC)cc3OC)nn2c1C` (centres undefined), for which the AC50 was 1 µM [falling, full curve].

`COc1ccccc1-c1cc2nc(C)c(CCC(=O)Nc3cc(C)ccc3C)c(C)n2n1`: the concentration at half-maximal activity (AC50) was 1 µM [falling, full curve].

In the case of `CCc1cccc(NC(=O)c2ccc(CNS(=O)(=O)c3ccc4c(c3)C(C)(C)C(=O)N4C)cc2)c1`, the AC50 is 12.6 µM [falling, partial curve].

With `COc1ccc(-n2nnc(-c3nc(-c4cccs4)no3)c2N)cc1`, the AC50 was 0.0251 µM [rising, full curve, poor fit].

Take `CCOC(=O)c1cnc2ccc(Cl)cc2c1Nc1ccc(N2CCOCC2)cc1`: the half-maximal activity concentration (AC50) is 12.6 µM [falling, partial curve].

Take `O=C(Nc1ccc(C(=O)N2CCN(c3ccccc3)CC2)cc1)c1nsc2ccccc12`: the half-maximal activity concentration (AC50) was 0.316 µM [falling, full curve].

Regarding `CCCN(CCC)CCNC(=O)C1CCN(c2nc3ccc(CC)cc3s2)CC1`, the half-maximal activity concentration (AC50) is 15.8 µM [falling, partial curve].

Take `CCOC(=O)Cn1c(=O)oc2cc(S(=O)(=O)NCCCc3ccccc3)ccc21`: the concentration at half-maximal activity (AC50) is 15.8 µM [falling, partial curve].

As for `CC(C)CC(C(=O)Nc1oc(-c2ccco2)c(-c2ccco2)c1C#N)N1C(=O)c2ccccc2C1=O` (centres undefined), the AC50 was 15.8 µM [falling, partial curve].

Take `O=C(NCc1ccccc1Cl)c1cc2cccc3c2n1CCS3`: the AC50 was 31.6 µM [falling, partial curve].

Regarding `c1ccc(N2CCN(c3ccccc3)C2c2cccs2)cc1`, the half-maximal activity concentration (AC50) is 2.51 µM [falling, partial curve].

In the case of `CC(N)=NCCCC[C@H](N)C(=O)O`, the AC50 is 2 µM [rising, partial curve] [measured here: IkB-luc green channel].

On to `Cc1ccnc(NS(=O)(=O)c2ccc(NC(=O)c3nc(SC(C)C)ncc3Cl)cc2)n1`, for which the AC50 is 0.1 µM [falling, full curve].

`Cc1ccc(S(=O)(=O)N2CCC(n3c(C)nc4cccnc43)CC2)c(C)c1`: the AC50 was 31.6 µM [falling, partial curve].

As for `CCOc1ccc(CCNC(=O)c2cc3sc(CC)cc3n2C)cc1OCC`, the concentration at half-maximal activity (AC50) was 31.6 µM [falling, single point].

Regarding `Cc1[nH]c2ccccc2c1SCCNC(=O)c1ccccc1F`, the AC50 is 39.8 µM [falling, single point].

With `Cc1ccc2oc(-c3cc(NC(=O)/C=C/c4ccco4)ccc3Cl)nc2c1`, the AC50 is 15.8 µM [falling, partial curve].

As for `CC(=O)Nc1nonc1-c1nc2ccccc2n1Cc1ccccc1Br`, the half-maximal activity concentration (AC50) is 0.501 µM [rising, full curve].

On to `COc1ccc(NC(=O)CCc2c(C)nc3c(-c4ccc(F)cc4)c(C)nn3c2C)c(OC)c1`, for which the AC50 was 10 µM [falling, partial curve, poor fit].

Turning to `Cc1ccccc1CN1CCCN(CC(=O)Nc2ccc3c(c2)OCCO3)S1(=O)=O`, the half-maximal activity concentration (AC50) is 31.6 µM [falling, single point].

`COc1ccc(C2=[N+]([O-])C(C)(C)N(O)C2(C)C)cc1`: the AC50 was 20 µM [rising, partial curve].

Turning to `CC(NC(=O)c1ccco1)C(c1cccs1)N1CCN(c2ccccc2F)CC1` (centres undefined), the AC50 was 20 µM [falling, partial curve].

Consider `CCOc1ccc(NC(=O)c2c(NC(=O)c3cccs3)sc3c2CCC(C(C)(C)C)C3)cc1` (centres undefined), for which the AC50 is 10 µM [falling, partial curve].

Take `COc1ccccc1NC(=O)c1cc(S(=O)(=O)NCCC2=CCCCC2)ccc1F`: the concentration at half-maximal activity (AC50) was 12.6 µM [falling, partial curve].

In the case of `O=C(NCc1cccc(Cl)c1)C1CCCN(c2ncnc3onc(-c4ccc(F)cc4)c23)C1` (centres undefined), the half-maximal activity concentration (AC50) is 7.94 µM [falling, partial curve].

As for `CCn1c(=O)cc(SCC(=O)N2CCN(c3ccccc3F)CC2)c2ccccc21`, the concentration at half-maximal activity (AC50) was 15.8 µM [falling, partial curve].

As to `O=C(CSc1nnc2[nH]c(=O)cc(-c3ccccc3)n12)Nc1cc(C(F)(F)F)ccc1Cl`, the concentration at half-maximal activity (AC50) is 15.8 µM [falling, partial curve].

`Cc1cc(C)cc(N2CCn3c2nc2c3c(=O)n(CCCc3ccccc3)c(=O)n2C)c1`: the half-maximal activity concentration (AC50) is 6.31 µM [falling, partial curve].

Consider `COc1ccc2[nH]c3nc(SC(C)C)nnc3c2c1`, for which the AC50 is 6.31 µM [falling, partial curve].

For the compound `Cc1ccc(CNC(=O)CCCn2c(=O)c3ccccc3n(Cc3ccc(Cl)cc3)c2=O)cc1`, the AC50 was 3.16 µM [falling, single point].

Consider `Cc1ccc(CNC(=O)CCC(=O)N2CCSc3ccccc32)cc1`, for which the half-maximal activity concentration (AC50) was 39.8 µM [falling, single point].

In the case of `CCOc1ccc(-c2noc(CSc3nnc(Cc4ccccc4)n3-c3cccc(C)c3)n2)cc1`, the AC50 is 12.6 µM [falling, partial curve].

Take `Cc1ccc(-c2nc3cc(C(C)C)ccc3o2)cc1NC(=O)c1cc([N+](=O)[O-])ccc1N1CCOCC1`: the AC50 is 1 µM [falling, full curve].

`CNC(=O)C1CCN(c2nc3ccccc3nc2C(F)(F)F)CC1`: the concentration at half-maximal activity (AC50) is 12.6 µM [rising, partial curve].

In the case of `COc1ccc(N(CC(=O)Nc2nc3ccc(C)cc3s2)S(=O)(=O)c2c(C)nn(C)c2C)cc1`, the half-maximal activity concentration (AC50) was 6.31 µM [falling, partial curve].

For `CCc1ccc(NC(=O)N2CCN(C(=O)c3nsc4ccccc34)CC2)cc1`, the AC50 is 39.8 µM [falling, single point].

Consider `O=C(Nc1ccc(SC(F)F)cc1)c1ccc2nccnc2c1`, for which the concentration at half-maximal activity (AC50) was 3.16 µM [falling, full curve].

Consider `COc1cc(Cl)c(C)cc1NC(=O)c1cnc2c(-c3cccc(C)c3)c(C)nn2c1C`, for which the AC50 is 12.6 µM [falling, single point].

On to `Cc1ccsc1CN1CCc2nc(N3CCN(c4ccccc4F)CC3)ncc2C1`, for which the AC50 was 12.6 µM [falling, partial curve].

As to `CNC(=O)c1ccc(CSc2nc3ccncc3n2Cc2ccc(C)cc2)cc1`, the AC50 was 31.6 µM [falling, partial curve].

For the compound `Cc1ccn2c(Nc3ccccc3C)c(-c3ccccc3)nc2c1`, the half-maximal activity concentration (AC50) is 39.8 µM [falling, single point].

In the case of `COc1ccc(CCNc2ncnc3c2oc2ccccc23)cc1OC`, the AC50 was 3.98 µM [falling, full curve].

In the case of `O=C(Nc1ccc2nc(SCC(=O)N3CCOCC3)sc2c1)c1ccccc1Cl`, the half-maximal activity concentration (AC50) was 20 µM [falling, partial curve].

On to `Cc1cccc(OCC(=O)Nc2ccccc2OCc2cc(=O)n3cc(C)ccc3n2)c1`, for which the AC50 was 0.0251 µM [falling, full curve].

On to `Cc1ccc(NCc2cccn2-c2nnc(N3CCC(C(=O)NCc4ccc(F)cc4)CC3)s2)cc1`, for which the AC50 is 5.01 µM [falling, partial curve].

Consider `CCc1cccc(C)c1NS(=O)(=O)c1ccc(-c2cc(C)no2)s1`, for which the half-maximal activity concentration (AC50) is 0.631 µM [rising, full curve].

As for `Cc1cccc(NC(=O)c2c(N)sc3c2CCC(C)C3)c1` (centres undefined), the concentration at half-maximal activity (AC50) was 15.8 µM [falling, partial curve].

In the case of `O=C(O)CCc1ccc(-c2ccc(Br)cc2)n1Cc1ccco1`, the AC50 is 12.6 µM [falling, partial curve].

As for `Cc1ccccc1Nc1c(-c2ccc(N3CCOCC3)cc2)nc2ccc(Cl)cn12`, the concentration at half-maximal activity (AC50) was 39.8 µM [falling, single point].

With `N#Cc1nc(/C=C/c2ccc(F)cc2)oc1NC1CCCCC1`, the concentration at half-maximal activity (AC50) is 3.16 µM [rising, single point].

Regarding `CCOc1ccc(CCNC(=O)CN2CCN(Cc3ccc(F)cc3)C2=O)cc1OCC`, the AC50 was 20 µM [falling, single point].

`COc1ccc(C(=O)NCC(c2ccco2)S(=O)(=O)c2cccs2)cc1` (centres undefined): the AC50 was 0.631 µM [falling, partial curve].

On to `COc1ccc(N(C)C(=O)C2CCN(S(=O)(=O)c3cc(Br)cc4c3N(C(C)=O)CC4)CC2)cc1`, for which the AC50 is 25.1 µM [falling, single point].

Turning to `O=C(Nc1ccc2nc(SCC(=O)N3CCOCC3)sc2c1)c1ccc(Cl)cc1`, the AC50 is 7.94 µM [falling, partial curve].

Take `CCN(Cc1ccccc1)C(=O)C(CC(C)C)NS(=O)(=O)c1ccc2c(c1)CCN2C(C)=O` (centres undefined): the AC50 is 20 µM [falling, single point].
